Measured values from US20240335372A1, “Sustained-Release Vaginal Films” (priority 2021, published 2024).
For some assays here: For at least one compound, name, drawing or mass did not settle the structure. Some entries share one result that the patent states for a list of compounds.

What was measured:
[1] = Macaque (NHP) pharmacokinetic study after vaginal film administration: vaginal swabs, plasma, PBMCs; conditions: MPT film LNG 16 mg, EFdA 14 mg, six macaques; day 1-31
Method: In NHP film evaluations, both vaginal fluid and blood components (e.g. plasma) samples were collected for at least 31 days post-film administration to assess drug levels and evaluate vaginal release and systemic exposure. […] In study 2, MPT films with increased LNG dose (e.g., 3.5 mg vs. 1 mg) were evaluated. […] Study 3 utilized the same formulation developed for Study 2 by simply replacing LNG with ENG.
The developed MPT film was administered in six macaques.

[2] = In vitro drug release of APIs from the extended-release polymer matrix film (Eudragit with PLGA); assay type: physicochemical; conditions: hydrophilic drug in PLGA/Eudragit film formulation, FIG. 3
Method: An initial screening study was conducted to identify suitable polymers for this application.
Based on visual disintegration it was identified that only the combination of PLGA and Eudragit polymers was successful in extending the disintegration time (FIG. 2). […] This burst release could be attributed to the hydrophilic nature of the drug.

Structure (SMILES)	mean EFdA-TP levels in PBMCs [1]	burst release time [2]
C#C[C@]1(COP(=O)(O)OP(=O)(O)OP(=O)(O)O)O[C@@H](n2cnc3c(N)nc(F)nc32)C[C@@H]1O [EFdA-TP]	0.36-0.018	–
C=C1[C@H](CO)[C@@H](O)C[C@@H]1n1cnc2c(=O)[nH]c(N)nc21 [ETV, Entecavir]	–	≤ 60 min
